Test results published in PubChem BioAssay AID194 (DTP/NCI, 2004).
Inconclusive results are not listed. The calls were made as follows: active = survival T/C of 150% or more; inactive = T/C below 125% in these data.

System: BDF1 mice, B16 melanoma s.c., survival/tumor T/C
Assay: NCI In Vivo Anticancer Drug Screen. Data for tumor model B16 Melanoma (subcutaneous) in B6D2F1 (BDF1) mice
Conditions: endpoint: median survival time, schedule: Q01DX009 (ip), higher = longer survival
Protocol: The antitumor activity of compounds was measured in mice bearing transplantable tumors. Survival or tumor size were measured and the results are expressed as the measurement made in the treated group (T) divided by the measurement made in the vehicle treated control group (C). The tumor model used in this assay is B16 Melanoma (subcutaneous) in B6D2F1 (BDF1) mice

Measured: T/C

COc1cc2c(c(OC)c1OC)-c1ccc(OC)c(=O)cc1[C@@H](N)CC2
inactive: dose: 0.03 mg/kg/injection, vehicle: carboxymethylcellulose (CMC) 96 % of control | dose: 0.07 mg/kg/injection, vehicle: carboxymethylcellulose (CMC) 89 % of control | dose: 0.15 mg/kg/injection, vehicle: carboxymethylcellulose (CMC) 98 % of control | dose: 0.25 mg/kg/injection, vehicle: saline 113 % of control | dose: 0.3 mg/kg/injection, vehicle: carboxymethylcellulose (CMC) 105 % of control | dose: 0.6 mg/kg/injection, vehicle: carboxymethylcellulose (CMC) 86 % of control | dose: 0.63 mg/kg/injection, vehicle: Klucel (hydroxypropylcellulose) (HPC) 108 % of control | dose: 1.0 mg/kg/injection, vehicle: saline 104 % of control | dose: 1.25 mg/kg/injection, vehicle: Klucel (hydroxypropylcellulose) (HPC) 100 % of control | dose: 1.25 mg/kg/injection, vehicle: carboxymethylcellulose (CMC) 98 % of control | dose: 2.0 mg/kg/injection, vehicle: saline 100 % of control | dose: 2.5 mg/kg/injection, vehicle: Klucel (hydroxypropylcellulose) (HPC) 115 % of control | dose: 5.0 mg/kg/injection, vehicle: Klucel (hydroxypropylcellulose) (HPC) 108 % of control

COc1c(O)cc2c(c1OC)-c1ccc(OC)c(=O)cc1[C@@H](NC(C)=O)CC2
inactive: dose: 0.63 mg/kg/injection, vehicle: saline with Tween-80 = 103 % of control | dose: 1.25 mg/kg/injection, vehicle: saline with Tween-80 = 115 % of control | dose: 2.5 mg/kg/injection, vehicle: saline with Tween-80 = 124 % of control
